SMILES strings stand for the structures. Counter-ions that a name gives are not always drawn. ± gives the standard deviation of the averaged measurements. The list shows a part of the results. Baselines shift from plate to plate; read single values as rough.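 The cells are a mouse kidney inner medullary collecting duct line, silenced either for the ciliary gene Rpgrip1l or with a non-targeting control siRNA.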

This test relates to mIMCD3. Nature of the test: robust z score of cell number vs plate controls; higher = more cells (less cytotoxic). The settings on record: 10 µM; 48 h; siRNA: siRpgrip1l.
On to `CN(C)c1nc(N)c(C(=O)Nc2cccnc2)nc1Cl` [ACDPP hydrochloride], for which the “robust z score of cell number” value is -17.1 ± 9.7.

As to `c1ccc(C(NCc2cccnc2)(c2ccccc2)c2ccccc2)cc1`, the “robust z score of cell number” value is -32.6 ± 10.

Consider `Nc1ccc(-c2cccc3c(=O)cc(N4CCOCC4)oc23)cc1`, for which the “robust z score of cell number” value is -13.8 ± 13.

On to `N[C@@H](CSC(c1ccccc1)(c1ccccc1)c1ccccc1)C(=O)O` [S-Trityl-L-cysteine], for which the “robust z score of cell number” value was -0.804 ± 2.3.

Regarding `CC(C)[C@H](CO)Nc1nc(Nc2cc(N)cc(Cl)c2)c2ncn(C(C)C)c2n1` [Aminopurvalanol A], the “robust z score of cell number” value was -38.2 ± 25.

In the case of `N[C@H](C(=O)O)[C@H](OCc1ccccc1)C(=O)O` (racemic), the “robust z score of cell number” value was -5.5 ± 1.1.

As for `CC[N+](C)(CC)CC(=O)Nc1c(C)cccc1C` [N-Methyllidocaine iodide], the “robust z score of cell number” value is -0.955 ± 1.9.

On to `COc1cc(-c2ccc(=O)[nH]n2)ccc1OC(F)F` [Zardaverine], for which the “robust z score of cell number” value is -12.5 ± 13.

Turning to `CCCC1O[C@@H]2C[C@H]3[C@@H]4CCC5=CC(=O)C=C[C@]5(C)[C@H]4[C@@H](O)C[C@]3(C)[C@]2(C(=O)CO)O1` (stereo not given in full) [Budesonide], the “robust z score of cell number” value was -11.6 ± 3.

Consider `O=C(Nc1ccc([N+](=O)[O-])cc1O)Nc1ccccc1Br`, for which the “robust z score of cell number” value is -30.3 ± 29.
